Assay results published in patent US20200011856A1, “Method for Determining the Effectiveness of Treatment for the Prevention of Heartworm Disease” (priority 2017, published 2020).
At least one structure is not confirmed: it was looked up by name or label, or the drawing left a doubt.

System: Strongyloides stercoralis
Experiment: Strongyloides stercoralis L3 infection of NSG mice with or without MPA, treatment, counts of adult worms, L1 and L3

## CC(=O)OCC(=O)[C@@]1(O)CC[C@H]2[C@@H]3C[C@H](C)C4=CC(=O)C=C[C@]4(C)[C@H]3[C@@H](O)C[C@@]21C [MPA, methylprednisolone acetate]
  Induction of S. stercoralis hyperinfection: induces hyperinfection in NSG mice
